These are yes or no findings as the source states them, for the method shown. In cells and extracts the contact can be indirect. A result given as binding can be weak or reduced; the word gives no strength. Sequences can lack the tags named with a protein.
Target: RFP-Ncad (full-length N-cadherin) (UniProt P15116)
Test: co-IP; HA-Myo10^FERM co-expressed with RFP-Ncad in HEK293T cells; immunoprecipitated by anti-RFP antibody or mIgG; immunoblot

Sequences of proteins named here, by UniProt entry; tags and fusion partners are left off. A change or cut given only in a name is not applied to a line headed by its entry.
UniProt P15116: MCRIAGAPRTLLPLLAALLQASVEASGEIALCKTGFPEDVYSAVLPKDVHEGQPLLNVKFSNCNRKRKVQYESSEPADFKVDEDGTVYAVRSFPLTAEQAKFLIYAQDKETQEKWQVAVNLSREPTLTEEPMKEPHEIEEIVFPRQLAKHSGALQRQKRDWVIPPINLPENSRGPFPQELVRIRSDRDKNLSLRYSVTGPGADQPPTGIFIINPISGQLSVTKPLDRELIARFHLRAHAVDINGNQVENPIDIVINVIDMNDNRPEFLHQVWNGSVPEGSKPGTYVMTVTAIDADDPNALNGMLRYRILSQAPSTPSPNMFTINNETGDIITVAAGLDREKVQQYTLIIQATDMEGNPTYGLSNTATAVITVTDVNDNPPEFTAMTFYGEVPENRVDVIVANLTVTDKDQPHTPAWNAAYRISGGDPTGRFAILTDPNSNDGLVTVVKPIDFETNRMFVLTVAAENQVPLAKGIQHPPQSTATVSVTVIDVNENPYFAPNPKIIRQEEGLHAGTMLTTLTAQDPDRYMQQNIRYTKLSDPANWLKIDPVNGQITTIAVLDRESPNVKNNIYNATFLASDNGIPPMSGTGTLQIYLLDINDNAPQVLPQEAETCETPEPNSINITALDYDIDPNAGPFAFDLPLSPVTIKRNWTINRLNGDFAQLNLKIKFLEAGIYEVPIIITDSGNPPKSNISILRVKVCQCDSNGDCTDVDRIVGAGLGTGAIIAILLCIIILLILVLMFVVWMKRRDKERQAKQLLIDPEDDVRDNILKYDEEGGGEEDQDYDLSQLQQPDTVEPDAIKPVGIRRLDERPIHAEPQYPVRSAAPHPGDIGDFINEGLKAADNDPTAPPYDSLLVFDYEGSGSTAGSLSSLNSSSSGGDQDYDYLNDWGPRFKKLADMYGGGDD

binding: binds
B1: HA-Myo10^FERM (domain or fragment, UniProt F8VQB6 1704-2048)
chain: MTSTVYCHGGGSCKITINSHTTAGEVVEKLIRGLAMEDSRNMFALFEYNGQVDKAIESRTIVADVLAKFEKLAATSEAGDAPWKFYFKLYCFLDTDSMPKDSVEFAFMFEQAHEAVIHGHHPAPEESLQVLAALRLQYLQGDYTPHTSIPPLEEVYSVQRLRARISQSTKTFTPYERLEKRRTSFLEGTLRRSFRTGSVVRQKAEEEQMLDMWIKEEVCSARTSIIDKWKKLQGMNQEQAMAKYMALIKEWPGYGSTLFDVECKEGGFPQELWLGVSADAVSVYKRGEGKPLEVFQYEHILSFGAPLANTYKIVVDERELLFETSEVVDVAKLMKAYISMIVKKR

Reference: article PMC4539528
